# Tests used:
# [1] = general procedure: solution-phase peptide synthesis; EDC/HOOBt; HBTU/DIPEA; EDC/HOBt
# [2] = solution-phase peptide synthesis; EDC/HOOBt; HBTU/DIPEA; EDC/HOBt; conditions: whole synthesis, HCl salt (5HCl)
substance,measurement,setting,value
2HCl.H-Trp-Arg-Arg-Lys(Boc)-NH2,step yield,"[1]; late stage modification step, based on the titration, 2HCl salt",95%
2HCl.H-Trp-Trp-Pro-Trp-Arg-Arg-Lys(Boc)-NH2,step yield,"[1]; late stage modification step, based on titration, 2HCl salt",82%
3HCl.Boc-Ile-Leu-Arg-Trp-Pro-Trp-Trp-Pro-Trp-Arg-Arg-Lys(Boc)-NH2,step yield,"[1]; coupling step, based on NMR content, 3HCl salt",88%
Z-Trp-Arg-Arg-Lys(Boc)-NH2.2TPB,step yield,"[1]; coupling step, based on titration content, 2TPB salt",83%
Z-Trp-Trp-Pro-Trp-Arg-Arg-Lys(Boc)-NH2.2TPB,step yield,"[1]; coupling step, based on NMR content, 2TPB salt",98%
Z-Arg-Trp-Pro-Trp-Trp-Pro-Trp-Arg-Arg-Lys(Boc)-NH2.3TPB,step yield,"[1]; coupling step, based on NMR content, 3TPB salt",87%
5HCl.H-Ile-Leu-Arg-Trp-Pro-Trp-Trp-Pro-Trp-Arg-Arg-Lys-NH2,final purity (method not given),[2],above 98%
3HCl.H-Arg-Trp-Pro-Trp-Trp-Pro-Trp-Arg-Arg-Lys(Boc)-NH2,step yield,"[1]; late stage modification step, based on NMR content measurement, 3HCl salt",93%

# Source: US9409946 (dated 2016)
